# Tested on: Neuro2A cells
# Assay: Neurite outgrowth assay
# Format: cell-based, mouse
# Details: differentiated Neuro2A cells, 48 h post-treatment, 10, 1, 0.1, 0.01 μM
structure (smiles),measurement,value
"O=C(CCCCCCC(=O)Nc1ccccc1)NO [vorinostat, suberoylanilide hydroxamic acid, reference compound]",neurite outgrowth promotion compared to no inhibitor (vehicle),significantly more neurite outgrowth promotion

# From paper PMC6811854 (ACS Omega, 2019)
